Test results as given in publication doi:10.1101/2021.02.17.431446.
Results are given in words; binding and its absence hold for the method and conditions named. In cells and extracts the contact can be indirect. Sequences can lack the tags named with a protein.

By UniProt entry, the sequences of proteins in these tests, tags left out.
UniProt P09429: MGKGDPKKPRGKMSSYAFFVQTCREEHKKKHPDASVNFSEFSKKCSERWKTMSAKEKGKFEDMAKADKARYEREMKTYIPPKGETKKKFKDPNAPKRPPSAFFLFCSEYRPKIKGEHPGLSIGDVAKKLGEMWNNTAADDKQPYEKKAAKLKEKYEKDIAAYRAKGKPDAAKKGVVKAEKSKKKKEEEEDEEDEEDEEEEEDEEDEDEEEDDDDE

Target: T1, HA-LXRα (human) (UniProt Q13133)
T1 sequence: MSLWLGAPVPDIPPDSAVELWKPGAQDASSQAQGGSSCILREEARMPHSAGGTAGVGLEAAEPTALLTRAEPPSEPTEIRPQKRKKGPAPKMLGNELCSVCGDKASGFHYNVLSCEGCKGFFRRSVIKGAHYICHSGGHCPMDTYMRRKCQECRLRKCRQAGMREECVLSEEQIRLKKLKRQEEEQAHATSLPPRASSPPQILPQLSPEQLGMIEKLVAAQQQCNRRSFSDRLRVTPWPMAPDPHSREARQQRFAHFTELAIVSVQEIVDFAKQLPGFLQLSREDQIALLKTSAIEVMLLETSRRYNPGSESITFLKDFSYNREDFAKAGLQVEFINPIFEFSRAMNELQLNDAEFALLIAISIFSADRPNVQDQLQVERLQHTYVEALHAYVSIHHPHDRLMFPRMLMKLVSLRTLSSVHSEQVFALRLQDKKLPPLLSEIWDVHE
Experiment: co-IP

binding: no binding
Substance: Myc-HMGB1 (from UniProt P09429 1-215)
